PubChem BioAssay AID652243 – Drosophila RNAi Screening Center, 2013
Purpose: 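Knock-downs that decrease or increase androgen receptor reporter signal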 (primary screen). System: Drosophila S2R+ cells. Knock-down reagent: long dsRNA against Drosophila genes. Time to read-out: 72 h (48 h, then 24 h hormone). Conditions: synthetic androgen R1881 at 10 nM for 24 h. Measured: 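Firefly light from an androgen-responsive reporter and Renilla control light per well, raw and unnormalised, for each of two replicates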. Direction: firefly reporter light: higher = more light from androgen-responsive reporter; Renilla control light: higher = more constitutive control signal (cell number, transfection). Rule for the call: 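Across duplicate plates, a knock-down whose log firefly/Renilla ratio shifted a set fold down or up from the GFP/LacZ control mean was a hit; the downward cut appears as both 1.5 and 3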. Meaning of the calls: active = hit: reporter lowered or raised; inactive = no hit.
The deposit covers about 24,000 reagents; this is an unselected part of those with a known target gene and a result. In the full data, 246 (1%) were called active. 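Plates not normalised; calls are printed but the firefly/Renilla ratio behind them is not deposited; fold cut for lowering reported inconsistently.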 Raw values vary from plate to plate and are shown uncorrected. Names joined by + are all predicted targets of the reagent. The record does not give: the amount of reagent.

| Target gene | PubChem SID | firefly reporter light, replicate 1 | firefly reporter light, replicate 2 | Renilla control light, replicate 1 | Renilla control light, replicate 2 | activity call |
| --- | --- | --- | --- | --- | --- | --- |
| CG30043 | SID104186077 | 2.39e5 | 1.74e5 | 1.45e6 | 1.40e6 | inactive |
| CG34204 | SID104216470 | 4.60e5 | 4.98e5 | 1.14e6 | 1.23e6 | inactive |
| EDTP (Egg-derived tyrosine phosphatase) | SID104187201 | 81937 | 71886 | 1.50e6 | 1.50e6 | inactive |
| EDTP (Egg-derived tyrosine phosphatase) | SID104214361 | – | – | – | – | inactive |
| EDTP (Egg-derived tyrosine phosphatase) | SID104214362 | – | – | – | – | inactive |
| Ir92a (Ionotropic receptor 92a) | SID104194903 | 2.41e5 | 2.43e5 | 2.87e6 | 3.41e6 | inactive |
| CG34297 | SID104216402 | 6.30e5 | 6.49e5 | 1.71e6 | 1.59e6 | inactive |
| CG10147 | SID104189498 | 1.60e5 | 1.84e5 | 1.61e6 | 2.94e6 | inactive |
| CG10147 | SID104208108 | 4.45e5 | 5.81e5 | 6.42e5 | 6.42e5 | inactive |
| CG12116 | SID104197604 | 2.51e5 | 3.69e5 | 2.93e6 | 2.89e6 | inactive |
| Acsl (Acyl-CoA synthetase long-chain) | SID104187044 | 1.17e6 | 1.60e6 | 1.16e6 | 1.17e6 | inactive |
| CG14717 | SID104194732 | 1.61e5 | 2.42e5 | 2.63e6 | 2.91e6 | inactive |
| CR6900 (pseudo) | SID104199810 | 4.64e5 | 1.47e5 | 1.36e6 | 5.18e5 | inactive |
| CG12860 | SID104185992 | 48762 | 59517 | 9.54e5 | 9.54e5 | inactive |
| CG12860 | SID104204808 | 2.91e5 | 3.45e5 | 7.11e5 | 6.91e5 | inactive |
| CR14033 (pseudo) | SID104182150 | 1.73e6 | 1.73e6 | 1.31e6 | 2.16e6 | inactive |
| CR14033 (pseudo) | SID104203534 | 8.90e5 | 8.55e5 | 1.18e6 | 1.18e6 | inactive |
| Vha36-2 (Vacuolar H[+] ATPase 36kD subunit 2) | SID104186086 | 1.69e5 | 2.02e5 | 1.32e6 | 1.38e6 | inactive |
| Vha36-2 (Vacuolar H[+] ATPase 36kD subunit 2) | SID104207782 | 1.09e6 | 8.66e5 | 1.32e6 | 1.12e6 | inactive |
| CG33467 | SID104185317 | 1.20e5 | 1.83e5 | 5.69e5 | 7.50e5 | inactive |
| CG33467 | SID104202054 | 6.18e5 | 6.36e5 | 1.08e6 | 1.28e6 | inactive |
| Mur82C (Mucin related 82C) | SID104191803 | 91840 | 54019 | 2.53e5 | 2.33e5 | inactive |
| Mur82C (Mucin related 82C) | SID104192004 | 6.45e5 | 7.76e5 | 9.52e5 | 9.02e5 | inactive |
| Mur82C (Mucin related 82C) | SID104202729 | 9.43e5 | 1.13e6 | 8.75e5 | 9.17e5 | inactive |
| Mur82C (Mucin related 82C) | SID104216638 | 5.68e5 | 4.21e5 | 1.21e6 | 9.31e5 | inactive |
| Pen (Pendulin) | SID104183188 | 9.21e5 | 1.19e6 | 1.21e6 | 1.92e6 | inactive |
| Pen (Pendulin) | SID104216735 | 6.45e5 | 6.24e5 | 1.92e6 | 1.80e6 | inactive |
| Ube4A (Ubiquitination factor E4A) | SID104181796 | 1.14e6 | 1.49e6 | 2.78e6 | 2.47e6 | inactive |
| CR11386 + CR33222 | SID104197573 | 2.70e5 | 3.13e5 | 2.51e6 | 2.31e6 | inactive |
| CR11386 + CR33222 | SID104202980 | 6.52e5 | 5.88e5 | 7.93e5 | 7.19e5 | inactive |
| pck (pickel) | SID104198357 | 1.07e5 | 1.22e5 | 6.23e5 | 5.53e5 | inactive |
| CG9436 | SID104184797 | 9.09e5 | 7.30e5 | 2.08e6 | 1.71e6 | inactive |
| CG17721 | SID104195045 | 2.03e5 | 2.61e5 | 3.22e6 | 2.71e6 | inactive |
| CG2611 | SID104182502 | 9.56e5 | 1.16e6 | 1.86e6 | 2.60e6 | inactive |
| CG2611 | SID104205184 | 3.79e5 | 3.15e5 | 7.83e5 | 7.97e5 | inactive |
| Ipk1 (Inositol phosphate kinase 1) | SID104184027 | 5.81e5 | 6.59e5 | 2.39e6 | 2.78e6 | inactive |
| Ipk1 (Inositol phosphate kinase 1) | SID104184028 | 1.55e5 | 1.70e5 | 1.03e6 | 1.13e6 | inactive |
| Ipk1 (Inositol phosphate kinase 1) | SID104184029 | 2.23e5 | 2.36e5 | 2.06e6 | 1.92e6 | inactive |
| dpr19 (defective proboscis extension response 19) | SID104182029 | 1.69e5 | 1.65e5 | 1.06e6 | 1.02e6 | inactive |
| CG4456 + Hsp22 | SID104190979 | 2.67e5 | 1.43e5 | 2.82e6 | 1.30e6 | inactive |
| CG4456 + Hsp22 | SID104190984 | 8.31e5 | 5.14e5 | 2.22e6 | 1.83e6 | inactive |
| Su(dx) (Suppressor of deltex) | SID104180583 | 4.32e5 | 4.20e5 | 8.16e5 | 9.14e5 | inactive |
| Su(dx) (Suppressor of deltex) | SID104204736 | 3.38e5 | 2.99e5 | 5.33e5 | 5.23e5 | inactive |
| CG8578 | SID104199906 | 97567 | 1.59e5 | 9.81e5 | 7.62e5 | inactive |
| CG4511 | SID104195381 | 1.23e5 | 1.23e5 | 2.46e6 | 2.29e6 | inactive |
| CG4511 | SID104207184 | 3.19e5 | 3.57e5 | 1.21e6 | 1.20e6 | inactive |
| CG43349 | SID104179831 | 7.05e5 | 9.76e5 | 1.37e6 | 1.83e6 | inactive |
| enok (enoki mushroom) | SID104183888 | 1.15e6 | 3.69e5 | 1.47e6 | 9.08e5 | inactive |
| CG3842 | SID104198118 | 1.86e5 | 1.80e5 | 1.98e6 | 2.24e6 | inactive |
| CG3842 | SID104205128 | 3.19e5 | 3.31e5 | 7.07e5 | 6.23e5 | inactive |
| CG13501 | SID104183938 | 2.36e5 | 1.91e5 | 1.33e6 | 1.12e6 | inactive |
| Aprt (Adenine phosphoribosyltransferase) | SID104187931 | 77611 | 80155 | 1.51e6 | 1.46e6 | inactive |
| RYa-R (RYamide receptor) | SID104196549 | 2.14e5 | 1.76e5 | 7.56e5 | 8.27e5 | inactive |
| RpL10Ab (Ribosomal protein L10Ab) | SID104190590 | 2.13e5 | 1.97e5 | 1.98e6 | 1.54e6 | inactive |
| RpL10Ab (Ribosomal protein L10Ab) | SID104205532 | 2.51e5 | 2.28e5 | 5.19e5 | 4.69e5 | inactive |
| boil (boilerman) | SID104197664 | 2.56e5 | 4.28e5 | 3.22e6 | 3.04e6 | inactive |
| upd3 (unpaired 3) | SID104199428 | 7.46e5 | 6.99e5 | 3.76e6 | 3.22e6 | inactive |
| upd3 (unpaired 3) | SID104199760 | 6.27e5 | 4.64e5 | 4.12e6 | 3.30e6 | inactive |
| upd3 (unpaired 3) | SID104201715 | 6.03e5 | 6.39e5 | 1.71e6 | 1.69e6 | inactive |

Reprinted from the entries so far (3 entries):
| Target gene | PubChem SID | firefly reporter light, replicate 1 | firefly reporter light, replicate 2 | Renilla control light, replicate 1 | Renilla control light, replicate 2 | activity call |
| --- | --- | --- | --- | --- | --- | --- |
| RpL10Ab (Ribosomal protein L10Ab) | SID104205532 | 2.51e5 | 2.28e5 | 5.19e5 | 4.69e5 | inactive |
| boil (boilerman) | SID104197664 | 2.56e5 | 4.28e5 | 3.22e6 | 3.04e6 | inactive |
| upd3 (unpaired 3) | SID104199428 | 7.46e5 | 6.99e5 | 3.76e6 | 3.22e6 | inactive |
